Data published in PMC6915754, “Protein components of ribonucleoprotein granules from Drosophila germ cells oligomerize and show distinct spatial organization during germline development” (Scientific Reports, 2019).
Results are given in words; binding and its absence hold for the method and conditions named. Sequences can lack the tags named with a protein.

Target: T1, GFP-Aub (functional and methylated, from fly ovaries) (Drosophila) (UniProt O76922)
T1 sequence (chain, methylated (sDMAs), positions not printed): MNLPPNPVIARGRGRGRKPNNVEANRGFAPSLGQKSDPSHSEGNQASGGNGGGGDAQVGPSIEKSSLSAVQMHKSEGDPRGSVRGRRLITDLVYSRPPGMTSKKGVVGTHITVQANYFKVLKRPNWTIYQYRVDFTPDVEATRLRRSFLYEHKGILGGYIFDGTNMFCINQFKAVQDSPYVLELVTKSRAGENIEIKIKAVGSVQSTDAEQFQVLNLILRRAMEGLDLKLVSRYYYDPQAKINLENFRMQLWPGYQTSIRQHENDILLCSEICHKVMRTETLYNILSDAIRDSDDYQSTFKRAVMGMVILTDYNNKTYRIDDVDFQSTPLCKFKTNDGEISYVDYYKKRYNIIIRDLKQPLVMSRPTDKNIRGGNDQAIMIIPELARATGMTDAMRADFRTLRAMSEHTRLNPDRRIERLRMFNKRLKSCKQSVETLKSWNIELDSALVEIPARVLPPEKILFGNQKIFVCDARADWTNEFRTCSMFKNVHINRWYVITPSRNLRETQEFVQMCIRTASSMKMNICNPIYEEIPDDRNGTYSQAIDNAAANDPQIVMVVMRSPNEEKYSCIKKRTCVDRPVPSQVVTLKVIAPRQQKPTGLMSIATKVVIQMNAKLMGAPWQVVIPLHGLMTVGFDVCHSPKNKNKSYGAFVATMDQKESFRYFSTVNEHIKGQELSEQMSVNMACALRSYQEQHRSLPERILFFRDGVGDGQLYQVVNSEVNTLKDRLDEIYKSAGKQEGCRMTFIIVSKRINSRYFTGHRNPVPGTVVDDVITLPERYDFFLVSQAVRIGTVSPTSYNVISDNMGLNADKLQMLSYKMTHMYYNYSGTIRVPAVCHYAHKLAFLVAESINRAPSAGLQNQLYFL
Test: pull-down; GFP-Aub from fly ovaries held on anti-GFP agarose beads; partially purified His-SUMO Tud domains added; 50 µl reactions, 4 °C, 30 min, binding buffer PBS + 0.05% IGEPAL CA-630; 4 washes; bound domains detected by anti-His-tag western blot; both purified

B1: Tud domain 2 (amino acids 405-585 of Tudor) (domain or fragment, UniProt P25823 405-585)
chain: SLTVGLTYDVVISYVENGPYLFWVHLKSSDHDLSTMMGQIERTKLKALAQAPELGTACVARFSEDGHLYRAMVCAVYAQRYRVVYVDYGNSELLSASDLFQIPPELLEIKPFAFRFALAGTKEIEPIDDSMKRIFKKSAIYRNFELTVQAPESVGSMQTCHLNQNGTNMLELLRQLKNSRQ
B1 was tested. Which binding did it give?
The binding was “no binding”.
